Among the data in US20260069705A1 are binding values, retold here.

The chains behind the UniProt entries cited, without tags or fusion partners. Residues count along the entry.
UniProt Q99523, residues 78-831: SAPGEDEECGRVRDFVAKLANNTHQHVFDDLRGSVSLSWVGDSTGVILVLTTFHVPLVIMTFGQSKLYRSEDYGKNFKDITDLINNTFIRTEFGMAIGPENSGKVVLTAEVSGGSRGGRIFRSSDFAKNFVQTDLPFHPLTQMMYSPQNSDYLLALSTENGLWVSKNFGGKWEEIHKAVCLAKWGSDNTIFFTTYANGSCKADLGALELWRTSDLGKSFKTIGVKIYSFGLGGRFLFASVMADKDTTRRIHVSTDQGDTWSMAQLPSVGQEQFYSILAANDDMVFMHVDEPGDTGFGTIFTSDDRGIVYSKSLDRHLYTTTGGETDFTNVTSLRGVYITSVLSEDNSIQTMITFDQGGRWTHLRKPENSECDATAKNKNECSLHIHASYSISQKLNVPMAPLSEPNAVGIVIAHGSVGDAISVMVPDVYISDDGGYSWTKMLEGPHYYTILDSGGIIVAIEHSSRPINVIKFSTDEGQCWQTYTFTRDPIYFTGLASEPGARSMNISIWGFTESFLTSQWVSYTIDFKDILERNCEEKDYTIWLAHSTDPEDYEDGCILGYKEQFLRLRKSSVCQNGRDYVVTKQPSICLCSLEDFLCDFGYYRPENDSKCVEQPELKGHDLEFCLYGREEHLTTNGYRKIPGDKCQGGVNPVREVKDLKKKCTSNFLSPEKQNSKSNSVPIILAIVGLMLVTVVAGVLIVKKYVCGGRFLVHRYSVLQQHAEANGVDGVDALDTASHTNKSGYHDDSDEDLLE

No constants are given. Whether binding was seen depends on the method and setting. In cells and extracts the contact can be indirect. Some results given as binding are weak or reduced against the parent protein; the word gives no strength.

The target of this test is sortilin (human), endogenous in human DCs (human) (UniProt Q99523). Put plainly: proximity ligation assay, monocyte-derived DCs as the reference.

B1: prosaposin in human monocyte-derived DCs (MoDCs) (protein)
chain: GPVLGLKECTRGSAVWCQNVKTASDCGAVKHCLQTVWNKPTVKSLPCDICKDVVTAAGDMLKDNATEEEILVYLEKTCDWLPKPNMSASCKEIVDSYLPVILDIIKGEMSRPGEVCSALNLCESLQKHLAELNHQKQLESNKIPELDMTEVVAPFMANIPLLLYPQDGPRSKPQPKDNGDVCQDCIQMVTDIQTAVRTNSTFVQALVEHVKEECDRLGPGMADICKNYISQYSEIAIQMMMHMSLQQPKEICALVGFCDEVKEMPMQTLVPAKVASKNVIPALELVEPIKKHEVPAKSDVYCEVCEFLVKEVTKLIDNNKTEKEILDAFDKMCSKLPKSLSEECQEVVDTYGSSILSILLEEVSPELVCSMLHLCSGTRLPALTVHVTQPKDGGFCEVCKKLVGYLDRNLEKNSTKQEILAALEKGCSFLPDPYQKQCDQFVAEYEPVLIEILVEVMDPSFVCLKIGACPSAHKPLLGTEKCIWGPSYWCQNTETAAQCNAVEHCKRHVWN
With B1, the binding entry was “binds”.
